This is one part of the list.
How the values were obtained:
Test in all cases: glycan array binding signal (z-score within array); higher = stronger binding
Conditions in all cases: glycan notation: IUPAC condensed, linker removed
[1] = biological target: GlcNAc(b1-3)Gal(b1-4)GlcNAc(b1-3)Gal(b1-4)GlcNAc(b1-3)GalNAc
Method in brief: (§1)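 The binding signal is a Z-score computed within each array and averaged over linkers. Arrays of the same protein sequence at different concentrations or buffers were also averaged together. Data originate from 3228 arrays in the Consortium for Functional Glycomics database, kept only where the protein sequence was available.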

[2] = biological target: GlcNAc(b1-3)Gal(b1-4)GlcNAc(b1-3)GalNAc
Method in brief: as §1

[3] = biological target: GlcNAc(b1-3)Gal(b1-4)GlcNAc(b1-3)[GlcNAc(b1-3)Gal(b1-4)GlcNAc(b1-3)]GalNAc
Method in brief: as §1

[4] = biological target: GlcNAc(b1-3)Gal(b1-4)GlcNAc(b1-6)[Gal(b1-3)]GalNAc
Method in brief: as §1

[5] = biological target: GlcNAc(b1-3)Gal(b1-4)GlcNAc(b1-6)[GlcNAc(b1-3)Gal(b1-3)]GalNAc
Method in brief: as §1

[6] = biological target: GlcNAc(b1-3)Gal(b1-4)GlcNAc(b1-6)[GlcNAc(b1-3)]Gal(b1-4)GlcNAc
Method in brief: as §1

GlcNAc(b1-3)GalNAc = biological target: GlcNAc(b1-3)GalNAc
Method in brief: as §1

GlcNAc(b1-3)Man = biological target: GlcNAc(b1-3)Man
Method in brief: as §1

[7] = biological target: GlcNAc(b1-3)[GlcNAc(b1-4)][GlcNAc(b1-6)]GlcNAc
Method in brief: as §1

[8] = biological target: GlcNAc(b1-3)[GlcNAc(b1-6)]Gal(b1-4)GlcNAc
Method in brief: as §1

[9] = biological target: GlcNAc(b1-3)[GlcNAc(b1-6)]GalNAc
Method in brief: as §1

[10] = biological target: GlcNAc(b1-4)Gal(b1-4)GlcNAc
Method in brief: as §1

GlcNAc(b1-4)GlcNAc = biological target: GlcNAc(b1-4)GlcNAc
Method in brief: as §1

[11] = biological target: GlcNAc(b1-4)GlcNAc(b1-4)GlcNAc
Method in brief: as §1

[12] = biological target: GlcNAc(b1-4)GlcNAc(b1-4)GlcNAc(b1-4)GlcNAc(b1-4)GlcNAc
Method in brief: as §1

[13] = biological target: GlcNAc(b1-4)GlcNAc(b1-4)GlcNAc(b1-4)GlcNAc(b1-4)GlcNAc(b1-4)GlcNAc
Method in brief: as §1

[14] = biological target: GlcNAc(b1-4)[GlcNAc(b1-6)]GalNAc
Method in brief: as §1

[15] = biological target: GlcNAc(b1-6)Gal(b1-4)GlcNAc
Method in brief: as §1

GlcNAc(b1-6)GalNAc = biological target: GlcNAc(b1-6)GalNAc
Method in brief: as §1

[16] = biological target: GlcNAc6S(b1-3)Gal(b1-4)GlcNAc
Method in brief: as §1

Kdn(a2-3)Gal(b1-3)GalNAc = biological target: Kdn(a2-3)Gal(b1-3)GalNAc
Method in brief: as §1

Kdn(a2-3)Gal(b1-3)GlcNAc = biological target: Kdn(a2-3)Gal(b1-3)GlcNAc
Method in brief: as §1

Kdn(a2-3)Gal(b1-4)Glc = biological target: Kdn(a2-3)Gal(b1-4)Glc
Method in brief: as §1

Kdn(a2-3)Gal(b1-4)GlcNAc = biological target: Kdn(a2-3)Gal(b1-4)GlcNAc
Method in brief: as §1

[17] = biological target: Kdn(a2-3)Gal(b1-4)[Fuc(a1-3)]GlcNAc
Method in brief: as §1

Kdn(a2-6)Gal(b1-4)GlcNAc = biological target: Kdn(a2-6)Gal(b1-4)GlcNAc
Method in brief: as §1

[18] = biological target: Man(a1-2)Man(a1-2)Man(a1-3)Man
Method in brief: as §1

[19] = biological target: Man(a1-2)Man(a1-2)Man(a1-6)[Man(a1-3)]Man
Method in brief: as §1

Man(a1-2)Man(a1-3)Man = biological target: Man(a1-2)Man(a1-3)Man
Method in brief: as §1

[20] = biological target: Man(a1-2)Man(a1-3)[Man(a1-2)Man(a1-6)]Man
Method in brief: as §1

[21] = biological target: Man(a1-2)Man(a1-3)[Man(a1-2)Man(a1-6)]Man(a1-6)[Man(a1-2)Man(a1-2)Man(a1-3)]Man
Method in brief: as §1

[22] = biological target: Man(a1-2)Man(a1-3)[Man(a1-2)Man(a1-6)]Man(a1-6)[Man(a1-2)Man(a1-2)Man(a1-3)]Man(b1-4)GlcNAc(b1-4)GlcNAc
Method in brief: as §1

[23] = biological target: Man(a1-2)Man(a1-3)[Man(a1-6)]Man(a1-6)[Man(a1-2)Man(a1-3)]Man(b1-4)GlcNAc(b1-4)GlcNAc
Method in brief: as §1

[24] = biological target: Man(a1-2)Man(a1-6)[Man(a1-3)]Man(a1-6)[Man(a1-2)Man(a1-2)Man(a1-3)]Man
Method in brief: as §1

[25] = biological target: Man(a1-2)Man(a1-6)[Man(a1-3)]Man(a1-6)[Man(a1-2)Man(a1-2)Man(a1-3)]Man(b1-4)GlcNAc(b1-4)GlcNAc
Method in brief: as §1

Man(a1-3)[Man(a1-6)]Man = biological target: Man(a1-3)[Man(a1-6)]Man
Method in brief: as §1

[26] = biological target: Man(a1-3)[Man(a1-6)]Man(a1-6)[Man(a1-2)Man(a1-3)]Man(b1-4)GlcNAc(b1-4)GlcNAc
Method in brief: as §1

[27] = biological target: Man(a1-3)[Man(a1-6)]Man(a1-6)[Man(a1-3)]Man
Method in brief: as §1

[28] = biological target: Man(a1-3)[Man(a1-6)]Man(a1-6)[Man(a1-3)]Man(b1-4)GlcNAc(b1-4)GlcNAc
Method in brief: as §1

[29] = biological target: Man(a1-3)[Man(a1-6)]Man(b1-4)GlcNAc(b1-4)GlcNAc
Method in brief: as §1

[30] = biological target: Man(a1-3)[Man(a1-6)]Man(b1-4)GlcNAc(b1-4)[Fuc(a1-6)]GlcNAc
Method in brief: as §1

Man(a1-6)Man = biological target: Man(a1-6)Man
Method in brief: as §1

Man(b1-4)GlcNAc = biological target: Man(b1-4)GlcNAc
Method in brief: as §1

MurNAc(b1-4)GlcNAc = biological target: MurNAc(b1-4)GlcNAc
Method in brief: as §1

Neu5Ac(a2-3)Gal = biological target: Neu5Ac(a2-3)Gal
Method in brief: as §1

B1: OS9 (Arabidopsis thaliana) (protein)
chain: MRGSHHHHHHGMASMTGGQQMGRDLYDDDDKSRLQIFPAHLVGTFSRNNREPKYKIEFLPEDSPFHPGDNLESMVMLDKHGNRFLCYLPKEEKATSGWTSSQQNISTVMMETQQLVKLKTPDELLQPLSEKCLFRQEGWWSYEFCHQKYVRQLHVEDENKIVQEFFLGTFDPEATAAFNQTVSDASTDASQRYHSHVYTNGTTCDLTGSPREVEVRFVCAETRAMVTSITELSTCKYALTVQCPTLCKHPLFQLEKPVSHTIHCNAIPVEEDATRNKEEQAVDESPKMIADS
[1]
  glycan array binding signal (z-score): -0.933
[2]
  glycan array binding signal (z-score): 0.055
[3]
  glycan array binding signal (z-score): -0.582
[4]
  glycan array binding signal (z-score): 0.094
[5]
  glycan array binding signal (z-score): 1.05
[6]
  glycan array binding signal (z-score): -0.589
GlcNAc(b1-3)GalNAc
  glycan array binding signal (z-score): 0.441
GlcNAc(b1-3)Man
  glycan array binding signal (z-score): 0.127
[7]
  glycan array binding signal (z-score): -0.368
[8]
  glycan array binding signal (z-score): 0.204
[9]
  glycan array binding signal (z-score): -0.607
[10]
  glycan array binding signal (z-score): -0.506
GlcNAc(b1-4)GlcNAc
  glycan array binding signal (z-score): 0.952
[11]
  glycan array binding signal (z-score): -0.202
[12]
  glycan array binding signal (z-score): 0.349
[13]
  glycan array binding signal (z-score): -0.45
[14]
  glycan array binding signal (z-score): -0.3
[15]
  glycan array binding signal (z-score): 0.424
GlcNAc(b1-6)GalNAc
  glycan array binding signal (z-score): -0.857
[16]
  glycan array binding signal (z-score): -0.68
Kdn(a2-3)Gal(b1-3)GalNAc
  glycan array binding signal (z-score): 1.41
Kdn(a2-3)Gal(b1-3)GlcNAc
  glycan array binding signal (z-score): -1.07
Kdn(a2-3)Gal(b1-4)Glc
  glycan array binding signal (z-score): 0.473
Kdn(a2-3)Gal(b1-4)GlcNAc
  glycan array binding signal (z-score): 0.482
[17]
  glycan array binding signal (z-score): -0.824
Kdn(a2-6)Gal(b1-4)GlcNAc
  glycan array binding signal (z-score): -0.701
[18]
  glycan array binding signal (z-score): -0.763
[19]
  glycan array binding signal (z-score): 0.074
Man(a1-2)Man(a1-3)Man
  glycan array binding signal (z-score): -1.25
[20]
  glycan array binding signal (z-score): 0.462
[21]
  glycan array binding signal (z-score): -0.133
[22]
  glycan array binding signal (z-score): -0.644
[23]
  glycan array binding signal (z-score): -0.139
[24]
  glycan array binding signal (z-score): -0.146
[25]
  glycan array binding signal (z-score): -0.323
Man(a1-3)[Man(a1-6)]Man
  glycan array binding signal (z-score): -0.078
[26]
  glycan array binding signal (z-score): -1.13
[27]
  glycan array binding signal (z-score): -0.163
[28]
  glycan array binding signal (z-score): 1.43
[29]
  glycan array binding signal (z-score): -0.77
[30]
  glycan array binding signal (z-score): 0.384
Man(a1-6)Man
  glycan array binding signal (z-score): 1.8
Man(b1-4)GlcNAc
  glycan array binding signal (z-score): -0.806
MurNAc(b1-4)GlcNAc
  glycan array binding signal (z-score): -0.22
Neu5Ac(a2-3)Gal
  glycan array binding signal (z-score): -0.482

Reference: the supplement of paper PMC8728848
